Data source: PubChem BioAssay AID743454 (Peter MacCallum Cancer Centre, 2014)

Assay: 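Knock-downs lowering viability or raising caspase 3/7 activity in vorinostat-treated resistant cells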 (primary screen)
Cell system: human HCT116-VR colon cancer cells, selected for vorinostat resistance
Knock-down reagent: siRNA pool against human genes, 40 nM siRNA pool
Time to read-out: vorinostat for 24 h, read-out about 72 h after transfection
Challenge: vorinostat at 2.5 µM final
Measured: 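Cell viability by CellTiter-Fluor and caspase 3/7 activity by luminescence, each scaled to mock wells per plate, duplicates averaged, then robust z-scored over all plates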
Reading the numbers: viability robust z-score: higher = more viable cells than screen typical; caspase robust z-score: higher = more caspase 3/7 activity than screen typical
Call rule: 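Hits are knock-downs in viability class RV1/RV2 or caspase class CA1/CA2, excluding ones that killed cells in the no-drug cell-count arm; hits then retested with single siRNAs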
Here is a random part of about 18,000 reagents tested. Of all reagents, 450 (2.5%) were called active. 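Single biological run; no consistent viability z cut-off exists, so the class columns, not z-scores, define the calls.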 A number with no mark means an inactive call. Reagents against one gene are numbered here. Reagent sequences are not shown.

With knock-down of STON1 (GeneID 11037) the results were viability hit class no change; caspase hit class no change; viability robust z-score -0.65; caspase robust z-score 0.14.
With knock-down of SUFU (GeneID 51684), the record shows viability hit class no change; caspase hit class no change; viability robust z-score 1.94; caspase robust z-score -0.36.
RSRP1 (GeneID 57035) showed viability hit class no change; caspase hit class no change; viability robust z-score 1.52; caspase robust z-score 2.02.
Depletion of CRCT1 (GeneID 54544) gave: viability hit class no change; caspase hit class no change; viability robust z-score -2.82; caspase robust z-score 2.2.
With knock-down of TMLHE (GeneID 55217) the results were viability hit class no change; caspase hit class no change; viability robust z-score 0.11; caspase robust z-score -0.33.
After knock-down of FSIP2 (GeneID 401024) #1, the record shows viability hit class no change; caspase hit class no change; viability robust z-score 0.97; caspase robust z-score -0.22.
After knock-down of FSIP2 (GeneID 401024) #2 the results were viability hit class no change; caspase hit class no change; viability robust z-score -0.52; caspase robust z-score -0.21.
Silencing of ETFRF1 (GeneID 144363) resulted in: viability hit class no change; caspase hit class no change; viability robust z-score 1.5; caspase robust z-score -0.16.
Knock-down of S100A10 (GeneID 6281) gave: viability hit class no change; caspase hit class no change; viability robust z-score -0.77; caspase robust z-score -1.1.
For OR5M10 (GeneID 390167), the entry reads viability hit class no change; caspase hit class no change; viability robust z-score 0.55; caspase robust z-score 1.5.
Against FAM76A (GeneID 199870), the entry reads viability hit class no change; caspase hit class no change; viability robust z-score 0.37; caspase robust z-score 0.07.
Against NAP1L1 (GeneID 4673), the values are viability hit class no change; caspase hit class no change; viability robust z-score 0.82; caspase robust z-score 0.12.

Targets listed so far whose gene name begins with F or f:
FSIP2 (GeneID 401024) #1 → viability hit class: no change; caspase hit class: no change; viability robust z-score: 0.97; caspase robust z-score: -0.22
FSIP2 (GeneID 401024) #2 → viability hit class: no change; caspase hit class: no change; viability robust z-score: -0.52; caspase robust z-score: -0.21
FAM76A (GeneID 199870) → viability hit class: no change; caspase hit class: no change; viability robust z-score: 0.37; caspase robust z-score: 0.07
